PubChem BioAssay AID1259316 – Drosophila RNAi Screening Center, 2017
In all, the deposit lists 95 reagents; this is an unselected part. In the full data, 12 (13%) were called active. 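Calls follow set 1 z-scores only; applying the same cut-off to set 2 alone does not give the same calls.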 Unmarked entries are inactive. The record does not give: the amount of reagent.

- Screen: 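Genes affecting cellular ATP levels after a toxic manganese dose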
- System: Drosophila S2R+ cells
- Knock-down reagent: long dsRNA against Drosophila genes
- Time to read-out: 5 days (4 days knock-down, then 1 day with metal)
- Challenge: manganese chloride added to 15 mM for the last 24 hours
- Detection: 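After 4 days of knock-down, cells got 15 mM manganese chloride for 1 day; ATP measured by luciferase light as viability, z-scored, mean of two replicates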
- Scale: ATP z-score, set 1 (call basis) and ATP z-score: higher = more ATP, more viable cells under manganese
- Rule for the call: 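a reagent is called active when its set 1 ATP z-score exceeds 1.5 or falls below -1.5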
- Calls: active = ATP shifted up or down; inactive = no clear ATP shift

"ATP z-score, set 1 (call basis)","ATP z-score, set 2",gene,dsRNA
-0.326,0.269,Cdc50,DRSC20224
-0.929,-0.397,SERCA,DRSC04600
-1.24,-0.821,SERCA,DRSC26195
-0.535,-0.109,Orct,DRSC16777
0.0673,0.877,Orct,DRSC25574
1.99 (active),1.92,Vha16-1,DRSC05020
0.751,0.789,Vha16-1,DRSC32229
-0.534,0.242,Lnk,DRSC16729
0.685,0.237,Lnk,DRSC31005
-0.357,-0.348,p38c,DRSC22939
0.0312,-0.0426,p38c,DRSC37357
-0.367,-0.00912,CG6006,DRSC13137
-0.303,-0.0721,CG6006,DRSC15946
0.0217,-0.163,Sod2,DRSC07554
1.08,0.968,Sod2,DRSC27050
0.596,0.84,MtnA,DRSC21588
-0.312,-0.332,Zip99C,DRSC16320
0.828,0.403,Zip99C,DRSC40024
0.257,-0.563,Catsup,DRSC03288
-0.1,0.385,Catsup,DRSC25727
-0.019,-0.413,Catsup,DRSC40427
-0.778,-0.442,Nhe2,DRSC03172
-0.186,-0.0992,Nhe2,DRSC03377
0.52,-0.124,Sac1,DRSC34470
-0.584,-0.308,Sac1,DRSC34471
-0.322,-0.0457,Mvl,DRSC16752
-0.462,-0.531,Mvl,DRSC39671
0.345,0.252,CG42674,DRSC29701
0.129,-0.179,CG42674,DRSC35487
-0.334,-0.185,ZnT86D,DRSC16091
0.0112,1.04,ZnT86D,DRSC40064

4 of these entries in another layout.
| ATP z-score, set 1 (call basis) | ATP z-score, set 2 | gene | dsRNA |
| --- | --- | --- | --- |
| -0.929 | -0.397 | SERCA | DRSC04600 |
| -1.24 | -0.821 | SERCA | DRSC26195 |
| -0.535 | -0.109 | Orct | DRSC16777 |
| 0.0673 | 0.877 | Orct | DRSC25574 |

More records:
"ATP z-score, set 1 (call basis)","ATP z-score, set 2",gene,dsRNA
0.174,0.583,CG6126,DRSC15971
-0.207,-0.606,CG6126,DRSC39462
0.0555,-0.366,Rbcn-3A,DRSC18314
0.994,1.7,Rbcn-3A,DRSC28199
-0.283,-0.429,CG7536,DRSC20050
0.00814,0.09,CG7536,DRSC39596
0.312,0.863,eEF1gamma,DRSC23655
0.0341,1.48,eEF1gamma,DRSC35716
-1.99 (active),-1.83,Ctr1A,DRSC40310
-1.94 (active),-1.95,Ctr1A,DRSC40902
-0.104,-0.221,ZnT63C,DRSC23528
0.36,0.501,ZnT63C,DRSC37698
1.26,0.0194,p38b,DRSC37327
0.708,1.36,VhaSFD,DRSC03471
2.87 (active),2.45,VhaSFD,DRSC32234
1.47,1.92,VhaSFD,DRSC32235
1.97 (active),2.03,Vha44,DRSC24506
2.71 (active),1.51,Vha44,DRSC32230
-0.189,-0.294,p38a,DRSC36706
-0.226,-0.46,p38a,DRSC37322
0.0539,-0.426,-816832516,DRSC36755
-0.157,-0.17,Zip102B,DRSC17155
-0.134,-0.34,Zip102B,DRSC39247
